Here are results for 4 sequences from paper PMC10018359, “Allosteric effects of E. coli SSB and RecR proteins on RecO protein binding to DNA” (Nucleic Acids Research, 2023).

Construct, isoform or probe ends are uncertain for at least one entry. The comparison behind a weaker result is the experiment's own reference, which may not be listed here. Tags and fusion partners may be left off the protein sequences shown.

This data set deals with T1, RecO (Escherichia coli) (UniProt P0A7H3).
T1 sequence (looked up, limits assumed): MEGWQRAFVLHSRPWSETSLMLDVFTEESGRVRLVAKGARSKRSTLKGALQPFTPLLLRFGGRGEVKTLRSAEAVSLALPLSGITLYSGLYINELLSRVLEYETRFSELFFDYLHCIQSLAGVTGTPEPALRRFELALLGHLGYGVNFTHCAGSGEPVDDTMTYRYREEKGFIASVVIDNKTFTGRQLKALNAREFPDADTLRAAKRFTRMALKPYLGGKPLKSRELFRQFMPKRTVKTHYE
Put plainly: AUC sedimentation velocity. As to conditions: no SSB-Ct, Buffer BTP: 20 mM Bis-Tris propane pH 8.0, 50 mM NaCl, 25% (v/v) glycerol, 1 mM TCEP, 25 C, recombinant protein, protein details: His-tag cleaved with TEV (pMCSG7), label: 3'-Cy3, single-stranded DNA.

With “TTTTTTTTTTTTTTTTTTTTTTTTTTTTTTTTTTTTTTTTTTTTTTTTTTTTTTTTTTTTTTTTTTTTTTTTTTTTTTTTTTTTTTTTTTTTTTTTTTTTTTTTTTTTTTTTTTTTTTTTTTTTTTTTTTTTTTTTTTTT [Cy3-(dT)140]”, for the setting “1.2 to 1.2 S”, the binding result is listed as “binds more weakly”. As for “TTTTTTTTTTTTTTTTTTTTTTTTTTTTTTTTTTTTTTTTTTTTTTTTTTTTTTTTTTTTTTTTTTTT [Cy3-(dT)68]”, the binding result (0.9 to 1.0 S) is recorded as “binds more weakly”.

TTTTTTTTTTTTTTT [Cy3-(dT)15]: the binding result (0.5 to 0.6 S) is “binds more weakly”. Regarding “TTTTTTTTTTTTTTTTTTTTTTTTTTTTTTTTTTT [Cy3-(dT)35]”, the binding result (0.7 to 0.7 S) is reported as “binds more weakly”.
